Results as given in article PMC6753678, “Fueling Open Innovation for Malaria Transmission-Blocking Drugs: Hundreds of Molecules Targeting Early Parasite Mosquito Stages” (Frontiers in Microbiology, 2019).

Test system: P. berghei ookinete development
[1] = unified cytotox / IC50, <10-fold red, >10-fold green

## COc1ccc2nc3cc(Cl)ccc3c(NCc3ccccc3)c2c1.Cl [TCMDC-137663]
  Assay tox ratio Pb ODA (red: <10-fold selectivity; green: >10-fold): 25.54

## Cc1nc2nc(N)nc(N)c2c(C)c1Cc1ccccc1.Cl [TCMDC-137670]
  Assay tox ratio Pb ODA (red: <10-fold selectivity; green: >10-fold): 0.01

## Nc1nc(N)c2c(ccc3c2ncn3Cc2ccccc2)n1 [TCMDC-137749]
  Assay tox ratio Pb ODA: 0.26

## CCC1=C[C@@H]2CN(C1)Cc1c([nH]c3ccccc13)[C@@](C(=O)OC)(c1cc3c(cc1OC)N(C)[C@H]1[C@@](O)(C(=O)OC)[C@H](O)[C@]4(CC)C=CCN5CC[C@]31[C@@H]54)C2.O=S(=O)(O)O [TCMDC-137769]
  Assay tox ratio Pb ODA: 112.98

## Nc1nc(N)c2c(ccc3c2ccn3Cc2ccc3c(c2)OCO3)n1 [TCMDC-137808]
[1]
  Assay tox ratio Pb ODA: 0.07

## Nc1nc(N)c2c(ccc3c2ccn3Cc2cccc(F)c2)n1 [TCMDC-137810]
[1]
  Assay tox ratio Pb ODA: 0.32

## COc1cccc(Cn2ccc3c4c(N)nc(N)nc4ccc32)c1 [TCMDC-137811]
[1]
  Assay tox ratio Pb ODA: 0.00828

## Cc1ccccc1Cn1ccc2c3c(N)nc(N)nc3ccc21 [TCMDC-137812]
[1]
  Assay tox ratio Pb ODA: 0.02

## N#Cc1ccc(Cn2ccc3c4c(N)nc(N)nc4ccc32)cc1 [TCMDC-137820]
[1]
  Assay tox ratio Pb ODA: 0.00111

## CCN(C)C(=O)n1ncc2c3c(N)nc(N)nc3ccc21 [TCMDC-137828]
  Assay tox ratio Pb ODA (red: <10-fold selectivity; green: >10-fold): 0.09

## CCC(C)(C)c1ccc2nc(N)nc(N)c2c1C [TCMDC-137829]
  Assay tox ratio Pb ODA: 0.000547

## CCc1cc2c3c(N)nc(N)nc3ccc2n1CC [TCMDC-137851]
[1]
  Assay tox ratio Pb ODA: 0.0227

## Cl.Nc1nc(N)c2c(ccc3c2cnn3S(=O)(=O)N2CCCC2)n1 [TCMDC-137852]
  Assay tox ratio Pb ODA (red: <10-fold selectivity; green: >10-fold): 0.00269

## Cl.Nc1nc(N)c2c(ccc3nn(S(=O)(=O)N4CCCC4)cc32)n1 [TCMDC-137854]
  Assay tox ratio Pb ODA (red: <10-fold selectivity; green: >10-fold): 0.0222

## CCn1c(C(C)C)cc2c3c(N)nc(N)nc3ccc21 [TCMDC-137856]
[1]
  Assay tox ratio Pb ODA: 0.00513

## Cc1cc2c3c(N)nc(N)nc3ccc2n1C(C)C [TCMDC-137864]
[1]
  Assay tox ratio Pb ODA: 0.0143

## Nc1nc(N)c2c(Cl)c(N3CCOCC3)ccc2n1 [TCMDC-137868]
  Assay tox ratio Pb ODA: 0.00226

## CCC(C(C)C)n1ccc2c3c(N)nc(N)nc3ccc21 (stereo not drawn) [TCMDC-137872]
[1]
  Assay tox ratio Pb ODA: 0.00358

## Cl.OCC(CO)(CO)NCc1ccc2c3c(cccc13)-c1ccccc1-2 [TCMDC-137877]
  Assay tox ratio Pb ODA: 16.93

## CCCC(CCC)n1ccc2c3c(N)nc(N)nc3ccc21.Cl [TCMDC-137949]
[1]
  Assay tox ratio Pb ODA: 0.00061

## Nc1nc(N)c2c(ccc3c2ccn3CCCCO)n1 [TCMDC-137959]
[1]
  Assay tox ratio Pb ODA: 0.0245

## CCCC(C)n1ccc2c3c(N)nc(N)nc3ccc21 (stereo not drawn) [TCMDC-137964]
[1]
  Assay tox ratio Pb ODA: 0.00673

## CC(C)Cn1ncc2c3c(N)nc(N)nc3ccc21 [TCMDC-137970]
  Assay tox ratio Pb ODA (red: <10-fold selectivity; green: >10-fold): 0.06

## CCOCn1c(-c2ccccc2)cc2c3c(N)nc(N)nc3ccc21 [TCMDC-137979]
[1]
  Assay tox ratio Pb ODA: 0.70

## Nc1nc(N)c2c(ccc3c2ccn3Cc2ccccn2)n1 [TCMDC-137980]
[1]
  Assay tox ratio Pb ODA: 0.00316

## C=CCn1ccc2c3c(N)nc(N)nc3ccc21 [TCMDC-137995]
[1]
  Assay tox ratio Pb ODA: 0.40

## Nc1nc(N)c2c(ccc3c2ccn3Cc2cccc3ccccc23)n1 [TCMDC-137996]
[1]
  Assay tox ratio Pb ODA: 0.000295

## CC(C)Cn1ccc2c3c(N)nc(N)nc3ccc21 [TCMDC-137997]
[1]
  Assay tox ratio Pb ODA: 0.18

## CCCCCCCc1c(C)nc2cccc(OC)c2c1O [TCMDC-138014]
  Assay tox ratio Pb ODA (red: <10-fold selectivity; green: >10-fold): 4.80

## Cc1ccc(S(=O)(=O)N(CCCNCc2cccc(O)c2)c2ccccc2)cc1 [TCMDC-138022]
[1]
  Assay tox ratio Pb ODA: 26.84

## COc1ccc(Cc2c(N)nc3nc(N)nc(N)c3c2C)cc1.Cl [TCMDC-138061]
  Assay tox ratio Pb ODA (red: <10-fold selectivity; green: >10-fold): 0.0106

## COc1ccc(-c2nc3c(N)nc(N)nc3nc2-c2ccccc2Cl)cc1.COc1ccc(-c2nc3nc(N)nc(N)c3nc2-c2ccccc2Cl)cc1.Cl [TCMDC-138100]
  Assay tox ratio Pb ODA: 8.88

## CC(O)C(C)(CO)NCc1ccc2c3c(cccc13)-c1ccccc1-2.Cl (stereo not drawn) [TCMDC-138117]
  Assay tox ratio Pb ODA: 7.35

## CC(=O)c1ccc2nc[nH]c(=O)c2c1 [TCMDC-138172]
  Assay tox ratio Pb ODA: 7.43

## Cc1ccc2c(=O)c3cc(C)ccc3[nH]c2c1 [TCMDC-138194]
  Assay tox ratio Pb ODA: 293.83

## COc1ccc(Cn2c(Nc3cccc(C(F)(F)F)c3)nc3cc(C(=O)NC(C)C)cnc32)cc1Cl [TCMDC-138556]
  Assay tox ratio Pb ODA: 9.42

## Nc1nc(N)c2c(ccc3c2ccn3CCCC(F)(F)F)n1 [TCMDC-138622]
[1]
  Assay tox ratio Pb ODA: 0.06

## Nc1nc(N)c2c(ccc3c2ccn3CCCF)n1 [TCMDC-138623]
[1]
  Assay tox ratio Pb ODA: 0.58

## C=CC(C)C1OC(=O)c2cc(OC)cc(OC)c21 (stereo not drawn) [TCMDC-138676]
[1]
  Assay tox ratio Pb ODA: 2.06

## C=CCC1OC(=O)c2cc(OC)cc(OC)c21 (stereo not drawn) [TCMDC-138677]
  Assay tox ratio Pb ODA: 1.03

## CN1CCN(c2ccc(Nc3nccc(-c4cnn5ncccc45)n3)cc2Cl)CC1 [TCMDC-138688]
  Assay tox ratio Pb ODA: 25.93

## CC(=O)c1ccc(NC(=O)Nc2ccc(N(C)c3ccnc(Nc4cccc(CS(C)(=O)=O)c4)n3)cc2)cc1 [TCMDC-138736]
  Assay tox ratio Pb ODA: 10.45

## Cc1[nH]c(C)c(-c2ccc(Oc3ccc(OC(F)(F)F)cc3)cc2)c(=O)c1Br [TCMDC-138826]
  Assay tox ratio Pb ODA (red: <10-fold selectivity; green: >10-fold): 9.61

## Cc1ccc(Nc2nc3cc(N(C)c4ccnc(Nc5cccc(CCS(C)(=O)=O)c5)n4)ccc3n2C)cc1.O=C(O)C(F)(F)F [TCMDC-138853]
  Assay tox ratio Pb ODA: 1.76

## OCCc1ccc(Nc2nccc(-c3nnc4ccccn34)n2)cc1 [TCMDC-138924]
  Assay tox ratio Pb ODA: 253.06

## CCCOc1cc(OCCC)cc(-c2cc(=O)c3ccccc3[nH]2)c1 [TCMDC-138943]
  Assay tox ratio Pb ODA: 182.72

## COc1ccc2nc3cc(Cl)ccc3c(NCCN(C)C)c2c1 [TCMDC-139093]
  Assay tox ratio Pb ODA (red: <10-fold selectivity; green: >10-fold): 7.20

## CN1Cc2cc(NC(=O)/C=C/c3ccccc3Cl)ccc2C(C)(C)C1.Cl [TCMDC-139315]
  Assay tox ratio Pb ODA: 36.28

## O=c1cc(NCCCN(Cc2ccccc2)Cc2ccccc2)[nH]c2ccccc12 [TCMDC-139368]
  Assay tox ratio Pb ODA: 11.81

## CCOC(=O)[C@H](Cc1cc([N+](=O)[O-])c(Oc2ccc(OC)c(Cc3ccc(OC)c(C(C)C)c3)c2)c([N+](=O)[O-])c1)NC(=O)C(F)(F)F [TCMDC-139398]
  Assay tox ratio Pb ODA: 20.42

## Cl.O=c1cc(NCCCNCc2sc(Br)c(Br)c2Br)[nH]c2ccccc12 [TCMDC-139647]
  Assay tox ratio Pb ODA: 17.65

## Cl.Oc1cc(-c2nc(-c3ccccc3)[nH]c2-c2ccncc2)ccc1Cl [TCMDC-139660]
  Assay tox ratio Pb ODA: 5.57

## CC(C)Nc1nc(NC2CCCCC2)nc(N2CCCCCCC2)n1 [TCMDC-139688]
  Assay tox ratio Pb ODA: 10.16

## COc1cc(NC(=O)Nc2ccc(Br)cc2C(=O)Nc2ccc(Br)cc2)cc(OC)c1OC [TCMDC-139733]
  Assay tox ratio Pb ODA: 15.68

## C=C[C@H]1CN(CCCCCCC)CC[C@H]1CC(=O)Nc1cnnc2ccc(OC)cc12.O=C(O)C(=O)O [TCMDC-139791]
  Assay tox ratio Pb ODA: 12.24

## COc1ccc(Cn2ccc3c4c(N)nc(N)nc4ccc32)cc1 [TCMDC-139862]
[1]
  Assay tox ratio Pb ODA: 0.0348

## CC(C)(C)CNCC(C)(C)c1nc(-c2ccc(Cl)c(O)c2)c(-c2ccncc2)[nH]1.Cl [TCMDC-140549]
[1]
  Assay tox ratio Pb ODA: 8.78

## COc1ccc2nccc([C@@H](O)CN3CCC(NCCOc4cc(C(F)(F)F)ccc4F)CC3)c2c1.O=C(O)C(=O)O [TCMDC-140658]
[1]
  Assay tox ratio Pb ODA: 0.00107

## COc1ccc2nccc([C@@H](O)CN3CCC(NCCOc4ccc(F)cc4Cl)CC3)c2c1.O=C(O)C(=O)O [TCMDC-140660]
[1]
  Assay tox ratio Pb ODA: 3.90

## COc1cc(-c2nc(C(C)(C)CN)[nH]c2-c2ccncc2)ccc1Br.Cl [TCMDC-140674]
  Assay tox ratio Pb ODA (red: <10-fold selectivity; green: >10-fold): 30.11

## CC(C)(CN)c1nc(-c2ccc(Br)c(O)c2)c(-c2ccncc2)[nH]1.Cl [TCMDC-140680]
[1]
  Assay tox ratio Pb ODA: 24.14

## COc1cccc(CNCC(C)(C)c2nc(-c3ccc(Cl)c(O)c3)c(-c3ccncc3)[nH]2)c1.Cl [TCMDC-140687]
  Assay tox ratio Pb ODA (red: <10-fold selectivity; green: >10-fold): 1.34

## COc1ccc2nccc([C@@H](O)CN3CCC(NCc4cc5ccc(C#N)cc5[nH]4)CC3)c2c1.O=C(O)C(=O)O [TCMDC-140696]
[1]
  Assay tox ratio Pb ODA: 0.82

## COc1ccc2nccc([C@@H](O)CN3CCC(NCc4cc5cccc6c5n(c4=O)CCC6)CC3)c2c1.O=C(O)C(=O)O [TCMDC-140735]
  Assay tox ratio Pb ODA: 4.72

## COc1ccc2nccc([C@@H](O)CN3CCC(NCc4cc5c(F)ccc(F)c5[nH]4)CC3)c2c1.O=C(O)C(=O)O [TCMDC-140739]
[1]
  Assay tox ratio Pb ODA: 5.31

## COc1ccc2nccc([C@@H](O)CN3CCC(NC(=O)c4ccc5cc[nH]c5c4)CC3)c2c1.CS(=O)(=O)O [TCMDC-140743]
[1]
  Assay tox ratio Pb ODA: 217.72

## COc1ccc2nccc([C@@H](O)CN3CCC(NCc4cc5c(F)ccc(F)c5[nH]4)CC3)c2n1.CS(=O)(=O)O [TCMDC-140749]
  Assay tox ratio Pb ODA (red: <10-fold selectivity; green: >10-fold): 4.32

## COc1ccc2nccc([C@@H](O)CN3CCC(NCc4cc5ccccc5nc4O)CC3)c2c1.Cl [TCMDC-140759]
[1]
  Assay tox ratio Pb ODA: 24.33

## O=C(NCc1ccco1)c1ccc(CN2CCN(C(c3ccccc3)c3ccccc3)CC2)cc1 [TCMDC-140763]
  Assay tox ratio Pb ODA: 35.36

## COc1ccc2nccc([C@@H](O)CN3CCC(NC(=O)c4cc5ccccc5[nH]4)CC3)c2c1.CS(=O)(=O)O [TCMDC-140780]
[1]
  Assay tox ratio Pb ODA: 212.13

## COc1ccc2nccc([C@@H](O)CN3CCC(NC(=O)c4cc5c(F)cc(F)cc5[nH]4)CC3)c2c1.CS(=O)(=O)O [TCMDC-140781]
[1]
  Assay tox ratio Pb ODA: 11.21

## COc1ccc2nccc([C@@H](O)CN3CCC(NCc4ccc5c(c4)NC(=O)CO5)CC3)c2c1.Cl [TCMDC-140793]
  Assay tox ratio Pb ODA (red: <10-fold selectivity; green: >10-fold): 7.76

## COc1ccc2nccc([C@@H](O)CN3CCC(NC(=O)/C=C/c4c[nH]c5c(C)cccc45)CC3)c2c1 [TCMDC-141000]
[1]
  Assay tox ratio Pb ODA: 27.00

## CC(C)(CNC(=O)[C@H]1CCCCN1)c1nc(-c2ccc(Cl)c(O)c2)c(-c2ccncc2)[nH]1.Cl [TCMDC-141070]
[1]
  Assay tox ratio Pb ODA: 17.63

## Cl.NCC1(c2nc(-c3ccc(Cl)c(O)c3)c(-c3ccncc3)[nH]2)CCCCC1 [TCMDC-141154]
[1]
  Assay tox ratio Pb ODA: 29.18

Like-named read-outs stand apart in the source and are kept apart here.
